Data on one sequence can be found in US12433936B2 (Nanjing Hanxin Pharmaceutical Technology Co., Ltd., priority 2021, dated 2025).

Plain letter strings leave the end groups untold.

The data set in a line: general procedure: Fmoc solid-phase peptide synthesis; 2-triphenylmethylchloromethane resin (preferred), substitution 0.1-1.0 mmol/g. As to conditions: whole synthesis, acetate.

The sequence “SYSMEHFRWGKPVGKKRRPVKVYPDGAEDESAEAFPLEF (deamidated at N25; N-25 deamidated human ACTH or analogue)” yielded an isolated mass of 255 g. Besides, the “final HPLC purity” value (HPLC, scale of the general procedure at least about 250 g/batch) is 99.58%. The same sequence registered an isolated yield (molar yield, scale of the general procedure at least about 250 g/batch) of 63%.
